Measurements reported in PubChem BioAssay AID504744 (Drosophila RNAi Screening Center, 2011)

Assay: 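Uncover factors, including feedback loops, that control dAkt activation in fly cells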 (primary screen)
System: Drosophila Kc167 cells
Reagents: long dsRNA against Drosophila genes, 250 ng dsRNA per well of a 384-well plate
Timing: 3 days of knock-down, then overnight serum-free starvation before stimulation
Treatment: bovine insulin at 387 nM for 10 minutes after 12 h without serum
Read-out: 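Per-well phospho-dAkt level from an in-cell fluorescent antibody stain, divided by a DNA-dye signal; log2 residuals turned into z-scores that take cell number into account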
Hit rule: 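Under insulin, a gene counts as a hit if the average z-score of two replicates lies above 2.5 or below -2.5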
The deposit covers about 23,000 reagents; shown is a random part of those that have a named target and a result. Over the whole deposit, 98 (0.43%) got an active call. 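Only hit calls are given; the phospho-dAkt signals, z-scores and hit direction were not deposited.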 Names joined by + are all predicted targets of the reagent.

The opening 15 entries as a preview:
| gene | dsRNA | call |
| --- | --- | --- |
| Ir67b (Ionotropic receptor 67b) | DRSC09876 | inactive |
| Dhc98D (Dynein heavy chain at 89D) | DRSC16645 | inactive |
| ImpE1 (Ecdysone-inducible gene E1) | DRSC11195 | inactive |
| ImpE1 (Ecdysone-inducible gene E1) | DRSC11196 | inactive |
| Invadolysin | DRSC15527 | inactive |
| Indy (I'm not dead yet) | DRSC10393 | inactive |
| KP78a + KP78b | DRSC16721 | inactive |
| KP78a + KP78b | DRSC16722 | inactive |
| Pi3K59F (Phosphatidylinositol 3-kinase 59F) | DRSC04640 | inactive |
| Amph (Amphiphysin) | DRSC07578 | inactive |
| CG42541 | DRSC17973 | inactive |
| CG42541 | DRSC18119 | inactive |
| CG42541 | DRSC18120 | inactive |
| CG11069 | DRSC14289 | inactive |
| CG34315 + Orc3 | DRSC07642 | inactive |

Results, from the first entry:
| gene | dsRNA | call |
| --- | --- | --- |
| Ir67b (Ionotropic receptor 67b) | DRSC09876 | inactive |
| Dhc98D (Dynein heavy chain at 89D) | DRSC16645 | inactive |
| ImpE1 (Ecdysone-inducible gene E1) | DRSC11195 | inactive |
| ImpE1 (Ecdysone-inducible gene E1) | DRSC11196 | inactive |
| Invadolysin | DRSC15527 | inactive |
| Indy (I'm not dead yet) | DRSC10393 | inactive |
| KP78a + KP78b | DRSC16721 | inactive |
| KP78a + KP78b | DRSC16722 | inactive |
| Pi3K59F (Phosphatidylinositol 3-kinase 59F) | DRSC04640 | inactive |
| Amph (Amphiphysin) | DRSC07578 | inactive |
| CG42541 | DRSC17973 | inactive |
| CG42541 | DRSC18119 | inactive |
| CG42541 | DRSC18120 | inactive |
| CG11069 | DRSC14289 | inactive |
| CG34315 + Orc3 | DRSC07642 | inactive |
| mRpS10 (mitochondrial ribosomal protein S10) | DRSC15557 | inactive |
| ND-B14.7 (NADH dehydrogenase (ubiquinone) B14.7 subunit) | DRSC04544 | inactive |
| CG15366 (retired record) | DRSC18039 | inactive |
| CG8060 | DRSC07064 | inactive |
| CG15773 | DRSC18079 | inactive |
| Ero1L (Endoplasmic reticulum oxidoreductin-1-like) | DRSC08660 | inactive |
| Tret1-1 (Trehalose transporter 1-1) | DRSC07046 | inactive |
| Tret1-1 (Trehalose transporter 1-1) | DRSC07048 | inactive |
| Mst84B (Male-specific transcript 84B) | DRSC12579 | inactive |
| CG7202 | DRSC11818 | inactive |
| bap (bagpipe) | DRSC16908 | inactive |
| CG1265 | DRSC08288 | inactive |
| CG30110 | DRSC05686 | inactive |
| Art3 (Arginine methyltransferase 3) | DRSC16065 | inactive |
| Rab10 | DRSC20572 | inactive |
| BEAF-32 (Boundary element-associated factor of 32kD) | DRSC05927 | inactive |
| CG30065 | DRSC05420 | inactive |
| Ccp84Aa | DRSC12586 | inactive |
| Np (Notopleural) | DRSC06089 | inactive |
| Np (Notopleural) | DRSC07094 | inactive |
| Np (Notopleural) | DRSC22421 | inactive |
| CG9289 | DRSC03187 | inactive |
| l(2)27Cb (retired record) | DRSC02758 | inactive |
| CG5180 | DRSC15731 | inactive |
| CG34251 | DRSC09498 | inactive |
| CG34251 | DRSC09500 | inactive |
| Vps16B (Vacuolar protein sorting 16B) | DRSC15304 | inactive |
| CG33454 | DRSC22914 | inactive |
| Nup35 (Nucleoporin 35kDa) | DRSC19999 | inactive |
| RpL18A (Ribosomal protein L18A) | DRSC07538 | inactive |
| CG6847 | DRSC19213 | inactive |
| CG6847 | DRSC20009 | inactive |
| CG6900 (retired record) | DRSC20018 | inactive |
| Alg13 (Alg13 UDP-N-acetylglucosaminyltransferase subunit) | DRSC14864 | inactive |
| Lamtor3 (Late endosomal/lysosomal adaptor, MAPK and MTOR activator 3) | DRSC02815 | inactive |
| fd96Ca (forkhead domain 96Ca) | DRSC16946 | inactive |
| Sec16 (Secretory 16) | DRSC19788 | active |
| Sec16 (Secretory 16) | DRSC19858 | inactive |
| PH4alphaSG2 (prolyl-4-hydroxylase-alpha SG2) | DRSC15037 | inactive |
| Atg3 (Autophagy-related 3) | DRSC10736 | inactive |
| Atg3 (Autophagy-related 3) | DRSC21758 | inactive |
| ASPP | DRSC04305 | inactive |
| mrj | DRSC22592 | inactive |
| CG14154 | DRSC10156 | inactive |
| CG8952 | DRSC20133 | inactive |
| CG16935 | DRSC06638 | inactive |
| CG3163 | DRSC04341 | inactive |
| Or59a (Odorant receptor 59a) | DRSC04631 | inactive |
| bwa (brain washing) | DRSC01749 | inactive |
| bwa (brain washing) | DRSC02310 | inactive |
| Trissin | DRSC14994 | inactive |
| CG1773 | DRSC06688 | inactive |
| IntS8 (Integrator 8) | DRSC07417 | inactive |
| Svip (small VCP interacting protein) | DRSC08982 | inactive |
| Hacd1 (3-hydroxyacyl-CoA dehydratase 1) | DRSC02988 | inactive |
| CG32320 | DRSC21514 | inactive |
| CG3402 | DRSC08567 | inactive |
| Tpc2 | DRSC04322 | inactive |
| CG9391 | DRSC11858 | inactive |
| Cbp53E (Calbindin 53E) | DRSC07356 | inactive |
| GNBP1 (Gram-negative bacteria binding protein 1) | DRSC11169 | inactive |
| GNBP1 (Gram-negative bacteria binding protein 1) | DRSC21836 | inactive |
| Cep164 (centrosomal protein 164) | DRSC20163 | inactive |
| lncRNA:CR31044 (long non-coding RNA::CR31044) | DRSC22451 | inactive |
| CG1572 | DRSC19686 | inactive |
| RhoGEF3 (Rho guanine nucleotide exchange factor 3) | DRSC08351 | inactive |
| RhoGEF3 (Rho guanine nucleotide exchange factor 3) | DRSC08352 | inactive |
| CG31883 | DRSC02561 | inactive |
| CG31706 | DRSC22704 | inactive |
| Phk-3 (Pherokine 3) | DRSC04547 | inactive |
| MED19 (Mediator complex subunit 19) | DRSC10516 | inactive |
| Ugt317A1 (UDP-glycosyltransferase family 317 member A1) | DRSC04470 | inactive |
| CG14490 | DRSC06461 | inactive |
| CG8170 | DRSC07087 | inactive |
| Ythdf (YTH N6-methyladenosine RNA binding protein) | DRSC16036 | inactive |
| Ythdf (YTH N6-methyladenosine RNA binding protein) | DRSC16037 | inactive |
| CG10357 | DRSC08155 | inactive |
| Slc25A46a | DRSC20125 | inactive |
| kar (karmoisin) | DRSC14496 | inactive |
| CG3942 | DRSC15525 | inactive |
| zetaTry (zetaTrypsin) | DRSC07720 | inactive |
| Pgant5 (Polypeptide N-Acetylgalactosaminyltransferase 5) | DRSC03149 | inactive |
| CG8568 | DRSC20113 | inactive |
| CG16953 | DRSC15167 | inactive |
| hog | DRSC19057 | inactive |
| swm (second mitotic wave missing) | DRSC02012 | inactive |
| swm (second mitotic wave missing) | DRSC21831 | inactive |
| RpL36A (Ribosomal protein L36A) | DRSC03055 | inactive |
| Sdhaf3 (Succinate dehydrogenase assembly factor 3) | DRSC15020 | inactive |
| z (zeste) | DRSC18855 | inactive |
| syd (sunday driver) | DRSC10963 | inactive |
| CG6441 | DRSC02957 | inactive |
| Syn2 (Syntrophin-like 2) | DRSC06902 | inactive |
| CG8907 | DRSC16453 | inactive |
| CG31533 | DRSC13018 | inactive |
| Xport-A + Xport-B | DRSC15586 | inactive |
| CG17328 | DRSC01927 | inactive |
| CG17328 | DRSC22448 | inactive |
| Lrp4 (LDL receptor related protein 4) | DRSC20118 | inactive |
| RalGPS (Ral GEF with PH domain and SH3 binding motif) | DRSC06941 | inactive |
| CG15393 (retired record) | DRSC00407 | inactive |
| SdhC (Succinate dehydrogenase, subunit C) | DRSC16088 | inactive |
| CG9586 | DRSC03270 | inactive |
| fs(1)K10 (female sterile (1) K10) | DRSC18775 | inactive |
| stretch (retired record) | DRSC14347 | inactive |
| stretch (retired record) | DRSC14512 | inactive |
| stretch (retired record) | DRSC14541 | inactive |
| stretch (retired record) | DRSC14542 | inactive |
| stretch (retired record) | DRSC14543 | inactive |
| ssp (sunspot) | DRSC10252 | inactive |
| CG31872 | DRSC02568 | inactive |
| CG31872 | DRSC02572 | inactive |
| CG13674 | DRSC10033 | inactive |
| Dhc1 (Dynein heavy chain 1) | DRSC16503 | inactive |
| E23 (Early gene at 23) | DRSC00425 | inactive |
| E23 (Early gene at 23) | DRSC00593 | inactive |
| CG14759 | DRSC06494 | inactive |
| CG8728 | DRSC07251 | inactive |
| Aos1 (Activator of SUMO 1) | DRSC14113 | inactive |
| DCTN6-p27 (Dynactin 6, p27 subunit) | DRSC02609 | inactive |
| DCTN6-p27 (Dynactin 6, p27 subunit) | DRSC22810 | inactive |
| CG3149 | DRSC17732 | inactive |
| Vha13 (Vacuolar H[+] ATPase 13kD subunit) | DRSC16895 | inactive |
| CG15140 | DRSC02440 | inactive |
| Nepl5 (Neprilysin-like 5) | DRSC03241 | inactive |
| CG31910 + snoRNA:Me28S-G2743 (retired record) | DRSC00946 | inactive |
| PPP1R15 (Protein phosphatase 1 regulatory subunit 15) | DRSC04422 | inactive |
| PyK (Pyruvate kinase) | DRSC16806 | inactive |
| CIA30 (Complex I intermediate-associated protein, 30 kDa) | DRSC16266 | inactive |
| CG4270 | DRSC00648 | inactive |
| CG11109 | DRSC11633 | inactive |
| stol (stolid) | DRSC01956 | inactive |
| CG6465 | DRSC16046 | inactive |
| fd96Cb (forkhead domain 96Cb) | DRSC16947 | inactive |
| DNAlig4 (DNA ligase 4) | DRSC19436 | inactive |
| Sk2 (Sphingosine kinase 2) | DRSC08556 | inactive |
| CG31288 | DRSC14667 | inactive |
| CG30192 | DRSC03977 | inactive |
| Cyp9b1 (Cytochrome P450 9b1) | DRSC07389 | inactive |
| CG9727 | DRSC12585 | inactive |
| CG33773 | DRSC14032 | inactive |
| CG32379 | DRSC10318 | inactive |
| Gr22a (Gustatory receptor 22a) | DRSC22283 | inactive |
| GstD6 (Glutathione S transferase D6) | DRSC16687 | inactive |
| Gr93d (Gustatory receptor 93d) | DRSC21941 | inactive |
| Iml1 (Increased minichromosome loss 1) | DRSC08249 | active |
| CG12112 | DRSC17809 | inactive |
| Cpr78Cc (Cuticular protein 78Cc) | DRSC11846 | inactive |
| mop (myopic) | DRSC11065 | inactive |
| CG6362 | DRSC07413 | inactive |
| eloF (elongase F) | DRSC15162 | inactive |
| CG11211 | DRSC04851 | inactive |
| CG12594 | DRSC14532 | inactive |
| hig (hikaru genki) | DRSC07628 | inactive |
| hig (hikaru genki) | DRSC22827 | inactive |
| hig (hikaru genki) | DRSC22899 | inactive |
| CG12769 | DRSC06167 | inactive |
| CG11878 | DRSC14422 | inactive |
| CG5532 | DRSC04509 | inactive |
| CG34408 | DRSC17733 | inactive |
| CG34408 | DRSC21926 | inactive |
| P5CDh1 (delta-1-Pyrroline-5-carboxylate dehydrogenase 1) | DRSC11801 | inactive |
| l(1)G0196 (lethal (1) G0196) | DRSC20591 | inactive |
| l(1)G0196 (lethal (1) G0196) | DRSC20628 | inactive |
| l(1)G0196 (lethal (1) G0196) | DRSC20629 | inactive |
| Tm2 (Tropomyosin 2) | DRSC16887 | inactive |
| spartin | DRSC12187 | inactive |
| rho-6 (rhomboid-6) | DRSC02588 | inactive |
| CG13065 | DRSC09948 | inactive |
| ecd (ecdysoneless) | DRSC08574 | inactive |
| CG4281 | DRSC18521 | inactive |
| trus (toys are us) | DRSC15772 | inactive |
| LRR (Leucine-rich repeat) | DRSC06444 | inactive |
| CG11807 | DRSC06087 | inactive |
| Taf7 (TBP-associated factor 7) | DRSC15445 | inactive |
| Cdc23 (Cell division cycle 23) | DRSC02708 | inactive |
| borr (borealin-related) | DRSC02749 | inactive |
| Oxp (Oxpecker) | DRSC06712 | inactive |
| CG4271 | DRSC00649 | inactive |
| Cyp4g15 (Cytochrome P450 4g15) | DRSC20240 | inactive |
| CG46339 | DRSC14136 | inactive |
| CG32485 | DRSC22666 | inactive |
| Gr39a (Gustatory receptor 39a) | DRSC01841 | inactive |
| Gr39a (Gustatory receptor 39a) | DRSC01842 | inactive |
| CG6845 | DRSC08576 | inactive |
